The results in this text go back to PMC10229898.

Test [1] deals with T1, green fluorescence protein (GFP)-fused CRP2 (cysteine-rich protein 2; cysteine- and glycine-rich protein 2) (UniProt Q16527).
T1 sequence: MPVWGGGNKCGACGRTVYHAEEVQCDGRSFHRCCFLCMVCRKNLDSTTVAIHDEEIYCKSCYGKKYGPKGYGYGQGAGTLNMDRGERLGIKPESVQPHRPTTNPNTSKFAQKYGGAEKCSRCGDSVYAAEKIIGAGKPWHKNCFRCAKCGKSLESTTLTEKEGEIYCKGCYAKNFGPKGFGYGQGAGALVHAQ
In words: co-IP; GFP-Trap magnetic agarose beads (anti-GFP nanobodies) on 1 mg of lysate protein from CRP2-GFP- or GFP-expressing MDA-MB-231 cells; lysis buffer 10 mM Tris-HCl pH 7.5, 150 mM NaCl, 0.5 mM EDTA, 0.5% NP-40; bound fraction probed for SRF and GFP.

The target in test [2] is T1, green fluorescence protein (GFP)-fused CRP2 (cysteine-rich protein 2; cysteine- and glycine-rich protein 2). Put plainly: proximity ligation; Duolink PLA in fixed (4% PFA), permeabilised MDA-MB-231 cells expressing CRP2-GFP, 24 h after transfection with FLAG-hSRF; anti-CRP2 and anti-FLAG antibodies; foci counted in nuclei.

Results are given in words; binding and its absence hold for the method and conditions named. Binding seen in cells or lysates may run through a third protein. Some entries that bind do so weakly or less than the wild type. Sequences can lack the tags named with a protein.

B1: serum response factor (SRF), endogenous (protein, UniProt P11831 1-508)
chain: MLPTQAGAAAALGRGSALGGSLNRTPTGRPGGGGGTRGANGGRVPGNGAGLGPGRLEREAAAAAATTPAPTAGALYSGSEGDSESGEEEELGAERRGLKRSLSEMEIGMVVGGPEASAAATGGYGPVSGAVSGAKPGKKTRGRVKIKMEFIDNKLRRYTTFSKRKTGIMKKAYELSTLTGTQVLLLVASETGHVYTFATRKLQPMITSETGKALIQTCLNSPDSPPRSDPTTDQRMSATGFEETDLTYQVSESDSSGETKDTLKPAFTVTNLPGTTSTIQTAPSTSTTMQVSSGPSFPITNYLAPVSASVSPSAVSSANGTVLKSTGSGPVSSGGLMQLPTSFTLMPGGAVAQQVPVQAIQVHQAPQQASPSRDSSTDLTQTSSSGTVTLPATIMTSSVPTTVGGHMMYPSPHAVMYAPTSGLGDGSLTVLNAFSQAPSTMQVSHSQVQEPGGVPQVFLTASSGTVQIPVSAVQLHQMAVIGQQAGSSSNLTELQVVNLDTAHSTKSE
Regarding B1, the binding entry in test [1] was “binds”.

B2: SRF-FLAG (FLAG-hSRF) (protein, UniProt P11831 1-508)
chain: B1 chain
Take B2: the binding result in test [2] is “binds”.
